Measurements: the supplement of paper PMC9254222
Over roughly 1,100 compounds, “Renilla luciferase signal (cell health) relative to plate median” has its median near 0.97; the highest 2% begin near 1.6. The entries are a selection whose mix differs from that of the whole data set.

Test system: HEK293T (UBE3A T485A transfected, BAR Wnt reporter)
Test: Renilla luciferase signal (cell health) relative to plate median (fold (linear ratio)); higher = higher Renilla signal
Conditions: 24 h
In short: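 Wnt activity (firefly/Renilla ratio) and cell health (raw Renilla) were read with Dual-Glo luciferase and median-centred plate by plate. HEK293T cells, at 4500 cells/well in white 384-well plates with DMEM plus 10% FBS at 37°C and 5% CO2, carried a transfected BAR firefly luciferase Wnt reporter, TK-Renilla and an expression plasmid. The chemicals were applied by robot at 0.01–100 uM for 24 h, beginning four hours after transfection, and results were averaged across four biological replicates.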

Row | Compound | Renilla luciferase signal (concentration: 0.1 uM) | Renilla luciferase signal (concentration: 1 uM) | Renilla luciferase signal (concentration: 10 uM) | Renilla luciferase signal (concentration: 100 uM) | Renilla luciferase signal (concentration: 0.01 uM)
1 | CCCCCCCC[Si](OCC)(OCC)OCC [Triethoxyoctylsilane] | 0.912 | 0.893 | 0.948 | 1.09 | 
2 | CC(C)(c1cc(Br)c(O)c(Br)c1)c1cc(Br)c(O)c(Br)c1 [3,3',5,5'-Tetrabromobisphenol A] | 0.97 | 0.886 | 0.811 | 0.0562 | 
3 | Nc1cccc(N)c1 [1,3-Benzenediamine] | 1.19 | 1.05 | 1.19 | 1.74 | 
4 | CCN(C(=O)c1cc(C)cc(OC[C@H](C)Nc2ccncc2)c1)C(C)C.Cc1ccc(S(=O)(=O)O)cc1 | 0.742 | 0.752 | 0.648 | 0.381 | 
5 | C=C(C)C(N)=O [Methacrylamide] | 1.03 | 1.12 | 1.11 | 1.2 | 
6 | CC(C)=CCCC(C)CCO (stereo unspecified) [Citronellol] | 1.04 | 1.11 | 1.11 | 1.38 | 
7 | O=S1(=O)CCCO1 [1,3-Propane sultone] | 1.1 | 1.1 | 1.09 | 1.54 | 
8 | Cc1cccc(C)c1O [2,6-Dimethylphenol] | 0.725 | 0.771 | 0.584 | 1.07 | 
9 | CCOc1cccc(-n2cc(C(=O)N3CCN(c4cc(C(=O)[O-])c5ccccc5c4)CC3)nc2-c2ccc(C)cc2)c1.[Na+] | 0.869 | 0.966 | 0.903 | 0.0785 | 
10 | O=c1ccn(C2OC(COP(=O)(O)OP(=O)(O)OP(=O)(O)O)C(O)C2O)c(=O)[nH]1 (stereo unspecified) |  |  |  | 2.08 | 
11 | CC(=O)/C(C)=C/C1C(C)=CCCC1(C)C (stereo not drawn) [alpha-Isomethylionone] | 0.734 | 0.712 | 0.76 | 1.3 | 
12 | CC(C)=CCCC(C)=CC=O [3,7-Dimethyl-2,6-octadienal] | 0.863 | 0.83 | 1.08 | 1.09 | 
13 | CC(=O)OCCC(C)C [3-Methylbutyl acetate] | 0.826 | 0.817 | 0.875 | 1.05 | 
14 | CN(C)C=O [N,N-Dimethylformamide] | 0.934 | 0.859 | 0.913 | 1.05 | 
15 | O=C(O)CCN(C1(C(=O)NO)CCCC1)S(=O)(=O)c1ccc(Oc2ccc(F)cc2)cc1 | 0.951 | 0.927 | 1.02 | 1.47 | 
16 | CC(C)(C)C(O)C(Cc1ccc(Cl)cc1)n1cncn1 (stereo unspecified) [Paclobutrazol] |  |  |  | 1.62 | 

Row | Compound | Renilla luciferase signal (concentration: 0.1 uM) | Renilla luciferase signal (concentration: 1 uM) | Renilla luciferase signal (concentration: 10 uM) | Renilla luciferase signal (concentration: 100 uM) | Renilla luciferase signal (concentration: 0.01 uM)
17 | O=C1c2c(O)cccc2Cc2cccc(O)c21 [Anthralin] | 1.1 | 0.951 | 0.986 | 0.834 | 
18 | Cc1c(C)c2c(c(C)c1O)CCC(C)(CCCC(C)CCCC(C)CCCC(C)C)O2 (stereo not drawn) [Vitamin E (alpha-tocopherol)] | 1.02 | 0.963 | 1.28 | 1.99 | 1.15
19 | O.O=C1[N-]S(=O)(=O)c2ccccc21.[Na+] [Sodium saccharin hydrate] | 1.05 | 1.15 | 1.35 | 1.71 | 
20 | O=C(O)CN(CC(=O)O)CC(=O)O [Nitrilotriacetic acid] | 0.952 | 1 | 1.15 | 1.37 | 
21 | CN(C)C(=O)NC1(c2ccccc2)CCN(CC[C@@]2(c3ccc(F)c(F)c3)CN(C(=O)c3ccccc3)CCO2)CC1.Cl | 0.958 | 1.12 | 0.963 | 0.0974 | 
22 | CCCCCCCCCCCCc1ccccc1S(=O)(=O)O [Dodecylbenzenesulfonic acid] | 0.733 | 0.796 | 0.72 | 0.358 | 
23 | CCn1nc(Cc2ccccc2)cc1C1CCN(C[C@H]2C[C@H](N(C)[C@@H](C(=O)O)C(C)C)C[C@@H]2c2cccc(F)c2)CC1 | 0.87 | 0.89 | 0.671 | 0.298 | 
24 | Oc1ccccc1O [Catechol] | 0.854 | 0.923 | 0.714 | 0.0658 | 
25 | CC(=O)Nc1ccc(O)cc1 [Acetaminophen] | 0.68 | 0.735 | 0.812 | 1.3 | 
26 | C#CCOC(=O)[C@@H](C)Oc1ccc(Oc2ncc(Cl)cc2F)cc1 [Clodinafop-propargyl] | 1.11 | 1.04 | 1.01 | 0.269 | 0.926
27 | Cc1ccc(C(C)(C)C)c(O)c1 [2-tert-Butyl-5-methylphenol] | 0.848 | 0.903 | 0.918 | 1.21 | 
28 | COc1cc(C=O)ccc1O [4-Hydroxy-3-methoxybenzaldehyde] | 0.805 | 0.833 | 0.848 | 0.902 | 
29 | CCOC(N)=O [Urethane] | 0.917 | 0.828 | 0.744 | 1.11 | 
30 | CCN(Cc1c(F)cccc1Cl)c1c([N+](=O)[O-])cc(C(F)(F)F)cc1[N+](=O)[O-] [Flumetralin] | 0.795 | 0.84 | 1 | 0.766 | 1.1
31 | CCCCCCC(C=O)=Cc1ccccc1 [2-Benzylideneoctanal] | 1.03 | 1.02 | 1.17 | 1.41 | 

Some of the entries so far, comma-delimited.
Row,Compound,Renilla luciferase signal (concentration: 0.1 uM),Renilla luciferase signal (concentration: 1 uM),Renilla luciferase signal (concentration: 10 uM),Renilla luciferase signal (concentration: 100 uM),Renilla luciferase signal (concentration: 0.01 uM)
18,Cc1c(C)c2c(c(C)c1O)CCC(C)(CCCC(C)CCCC(C)CCCC(C)C)O2 (stereo not drawn) [Vitamin E (alpha-tocopherol)],1.02,0.963,1.28,1.99,1.15
19,O.O=C1[N-]S(=O)(=O)c2ccccc21.[Na+] [Sodium saccharin hydrate],1.05,1.15,1.35,1.71,
21,CN(C)C(=O)NC1(c2ccccc2)CCN(CC[C@@]2(c3ccc(F)c(F)c3)CN(C(=O)c3ccccc3)CCO2)CC1.Cl,0.958,1.12,0.963,0.0974,
24,Oc1ccccc1O [Catechol],0.854,0.923,0.714,0.0658,
26,C#CCOC(=O)[C@@H](C)Oc1ccc(Oc2ncc(Cl)cc2F)cc1 [Clodinafop-propargyl],1.11,1.04,1.01,0.269,0.926
27,Cc1ccc(C(C)(C)C)c(O)c1 [2-tert-Butyl-5-methylphenol],0.848,0.903,0.918,1.21,
31,CCCCCCC(C=O)=Cc1ccccc1 [2-Benzylideneoctanal],1.03,1.02,1.17,1.41,
